Results reported in publication doi:10.1101/2025.06.23.661224.

Target: T1, isoamylase 1 (potato ISA1) (potato (Solanum tuberosum)) (UniProt Q84YG7)
T1 sequence: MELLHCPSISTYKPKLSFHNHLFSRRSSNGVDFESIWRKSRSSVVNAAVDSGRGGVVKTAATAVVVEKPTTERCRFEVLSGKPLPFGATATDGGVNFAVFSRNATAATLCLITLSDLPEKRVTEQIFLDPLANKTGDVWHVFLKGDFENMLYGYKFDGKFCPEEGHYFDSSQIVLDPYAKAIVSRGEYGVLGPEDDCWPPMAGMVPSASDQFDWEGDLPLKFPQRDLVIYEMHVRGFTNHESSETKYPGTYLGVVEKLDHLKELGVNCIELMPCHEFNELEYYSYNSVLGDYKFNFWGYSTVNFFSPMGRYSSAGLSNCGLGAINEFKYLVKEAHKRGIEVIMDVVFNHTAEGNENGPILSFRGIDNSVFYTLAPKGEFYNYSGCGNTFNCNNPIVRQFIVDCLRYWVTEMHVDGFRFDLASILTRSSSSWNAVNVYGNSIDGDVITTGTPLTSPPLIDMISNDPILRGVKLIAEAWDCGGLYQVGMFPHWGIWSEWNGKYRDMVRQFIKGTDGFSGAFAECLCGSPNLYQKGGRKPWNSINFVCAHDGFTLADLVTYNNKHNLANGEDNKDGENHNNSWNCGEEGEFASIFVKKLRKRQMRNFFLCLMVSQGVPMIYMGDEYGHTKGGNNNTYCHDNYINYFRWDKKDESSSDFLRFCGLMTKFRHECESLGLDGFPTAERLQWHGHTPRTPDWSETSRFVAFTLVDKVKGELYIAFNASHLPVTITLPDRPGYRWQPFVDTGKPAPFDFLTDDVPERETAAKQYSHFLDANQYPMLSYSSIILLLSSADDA
Assay: two-hybrid

binding: binds
Substance: LIKE EARLY STARVATION (potato LESV)

These are yes or no findings as the source states them, for the method shown. Binding calls can cover weak binding; strength is not graded here.
